PubChem BioAssay AID1259291 – Sanger Institute | 2017
Assay: 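Genes needed for HT29 colorectal cancer cell survival or for sensitivity to drugs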 (primary screen). System: HT29 human colorectal cancer cells. Reagent: siRNA pool against human genes. Treatment: anchor drugs added a day after transfection: BYL719 at 1 µM, cetuximab at 5 µg/ml or trametinib at 10 nM, or DMSO vehicle alone. Read-out: 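Replicate-averaged viability relative to non-targeting pool, robust z-score based on control wells, plus per-drug synergy score for 1 µM BYL719, 5 µg/ml cetuximab and 10 nM trametinib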. Scale: robust z-score, knock-down alone and viability, knock-down alone: higher = more viable cells; synergy score with BYL719 and synergy score with cetuximab and synergy score with trametinib: higher = stronger synergistic killing with drug. Rule for the call: 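a knock-down alone scoring under -3 on robust z-score is called essential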. Meaning of the calls: active = essential (knock-down alone); inactive = no change alone.
In all, the deposit lists 794 reagents; below is an unselected part. Over the whole deposit, 15 (1.9%) got an active call. 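Calls rest on knock-down alone; drug synergy scores do not affect them; drugs added a day post-transfection, DMSO vehicle as comparison.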 No viability above 1 is reported: the scale is capped. Not stated in the record: the amount of reagent, the time to read-out.

| Target gene | robust z-score, knock-down alone | viability, knock-down alone (fraction of control) | synergy score with BYL719 | synergy score with cetuximab | synergy score with trametinib | activity call |
| --- | --- | --- | --- | --- | --- | --- |
| PANK1 | 0.552 | 1 | 0.00874 | 0.0211 | -0.0711 | inactive |
| BMP2K | -0.0816 | 0.961 | -0.115 | 0.0677 | 0.0779 | inactive |
| MAP2K1 | 0.552 | 1 | 0.0473 | 0.00799 | 0.0564 | inactive |
| UCKL1 | -0.232 | 0.951 | -0.0613 | -0.0487 | -0.01 | inactive |
| BCKDK | 0.552 | 1 | -0.129 | 0.0168 | 0.174 | inactive |
| TGFBR3 | 0.211 | 0.979 | 0.000463 | 0.0612 | -0.0225 | inactive |
| DGUOK | 0.552 | 1 | 0.0311 | 0 | 0.0778 | inactive |
| AURKB | 0.552 | 1 | 0.098 | 0.252 | 0.178 | inactive |
| PTK6 | 0.552 | 1 | -0.0625 | 0 | -0.108 | inactive |
| SRPK3 | 0.552 | 1 | 0.00898 | 0.0272 | 0.0375 | inactive |
| NTRK3 | 0.552 | 1 | -0.0634 | 0 | -0.0989 | inactive |
| STK35 | 0.552 | 1 | 0.00958 | 0.083 | 0.0737 | inactive |
| IP6K3 | 0.552 | 1 | 0.068 | 0.0129 | 0.132 | inactive |
| CSNK2A1 | 0.552 | 1 | 0.0268 | 0.0298 | -0.0108 | inactive |
| LRRK2 | 0.552 | 1 | 0.131 | 0 | 0.026 | inactive |
| PAK1 | -0.0921 | 0.96 | -0.0831 | -0.0161 | -0.0316 | inactive |
| FGFR4 | 0.552 | 1 | -0.114 | 0.0107 | 0.0145 | inactive |
| FASTK | 0.552 | 1 | 0.0921 | 0.0278 | -0.0373 | inactive |
| STK32A | 0.552 | 1 | -0.0759 | 0 | -0.0845 | inactive |
| FXR1 | 0.552 | 1 | 0.0713 | 0 | -0.0102 | inactive |
| ADGRL2 | -0.0259 | 0.964 | -0.0623 | -0.0115 | -0.0322 | inactive |
| NLK | 0.552 | 1 | -0.0758 | 0 | 0.072 | inactive |
| BMAL1 | -3.67 | 0.738 | -0.0541 | -0.213 | -0.0708 | active |
| CHKB | 0.552 | 1 | -0.0748 | 0 | -0.229 | inactive |
| MOK | -0.509 | 0.934 | -0.0678 | -0.0659 | -0.0214 | inactive |
| ADPGK | 0.552 | 1 | 0.0366 | 0.147 | -0.101 | inactive |
| HIPK2 | 0.552 | 1 | -0.101 | 0 | -0.0919 | inactive |

Ordered by “synergy score with cetuximab” (descending): some entries from above.
| Target gene | robust z-score, knock-down alone | viability, knock-down alone (fraction of control) | synergy score with BYL719 | synergy score with cetuximab | synergy score with trametinib | activity call |
| --- | --- | --- | --- | --- | --- | --- |
| CSNK2A1 | 0.552 | 1 | 0.0268 | 0.0298 | -0.0108 | inactive |
| IP6K3 | 0.552 | 1 | 0.068 | 0.0129 | 0.132 | inactive |
| FGFR4 | 0.552 | 1 | -0.114 | 0.0107 | 0.0145 | inactive |
| LRRK2 | 0.552 | 1 | 0.131 | 0 | 0.026 | inactive |
| PAK1 | -0.0921 | 0.96 | -0.0831 | -0.0161 | -0.0316 | inactive |

The results go on:
| Target gene | robust z-score, knock-down alone | viability, knock-down alone (fraction of control) | synergy score with BYL719 | synergy score with cetuximab | synergy score with trametinib | activity call |
| --- | --- | --- | --- | --- | --- | --- |
| TGFBR2 | -0.173 | 0.955 | 0.0117 | 0.0668 | 0.119 | inactive |
| MAP2K3 | 0.552 | 1 | 0.147 | 0.04 | 0.123 | inactive |
| PIK3CA | -0.921 | 0.909 | -0.128 | -0.0403 | 0.0579 | inactive |
| ACVR2B | 0.552 | 1 | -0.0796 | 0.0742 | 0.0193 | inactive |
| CASP8 | 0.552 | 1 | -0.03 | 0 | -0.144 | inactive |
| PFKFB3 | 0.441 | 0.993 | 0.0915 | -0.00141 | 0.248 | inactive |
| ITPK1 | 0.552 | 1 | 0.0407 | 0.0772 | -0.0205 | inactive |
| SIK1 | 0.552 | 1 | -0.103 | 0 | 0.0319 | inactive |
| NTRK2 | -1.19 | 0.892 | -0.192 | -0.0204 | -0.227 | inactive |
| LIMK1 | -1.13 | 0.896 | 0.0959 | -0.0408 | -0.0545 | inactive |
| MGA | -1.73 | 0.859 | 0.0372 | 0.188 | 0.139 | inactive |
| AK2 | 0.552 | 1 | -0.0389 | 0.0159 | 0.265 | inactive |
| JAK3 | 0.552 | 1 | 0.0711 | 0.0412 | 0.0861 | inactive |
| CHEK1 | -4.47 | 0.689 | -0.0667 | -0.0479 | -0.0963 | active |
| MAST4 | 0.552 | 1 | -0.0906 | 0 | -0.0581 | inactive |
| CDK14 | -1.61 | 0.866 | -0.00421 | -0.000269 | -0.103 | inactive |
| GRK3 | 0.552 | 1 | -0.136 | 0 | -0.00504 | inactive |
| GRK2 | 0.552 | 1 | 0.078 | 0 | 0.112 | inactive |
| PASK | 0.552 | 1 | -0.00423 | 0.071 | 0.00192 | inactive |
| ERBB3 | 0.552 | 1 | -0.0488 | 0.11 | -0.2 | inactive |
| NEK6 | 0.37 | 0.989 | -0.15 | 0.016 | -0.176 | inactive |
| TRPM7 | 0.552 | 1 | 0.163 | 0.00894 | -0.0178 | inactive |
| CALM2 | 0.552 | 1 | 0.0675 | 0.0193 | 0.133 | inactive |
